Test results: article doi:10.1101/2021.05.18.444627 (bioRxiv, 2021)
Where two headings read alike, the source gives them in different places. Results are given in words; binding and its absence hold for the method and conditions named. Some results given as binding are weak or reduced against the parent protein; the word gives no strength.

By UniProt entry, the sequences of proteins in these tests, tags left out. Where a name states a change or a piece, a line headed by the entry shows the natural chain unless it says otherwise. Residues count along the entry.
UniProt P10218, 174-194: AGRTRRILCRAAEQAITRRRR
UniProt P10215, 22-42: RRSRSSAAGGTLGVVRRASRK
UniProt P10215, whole entry: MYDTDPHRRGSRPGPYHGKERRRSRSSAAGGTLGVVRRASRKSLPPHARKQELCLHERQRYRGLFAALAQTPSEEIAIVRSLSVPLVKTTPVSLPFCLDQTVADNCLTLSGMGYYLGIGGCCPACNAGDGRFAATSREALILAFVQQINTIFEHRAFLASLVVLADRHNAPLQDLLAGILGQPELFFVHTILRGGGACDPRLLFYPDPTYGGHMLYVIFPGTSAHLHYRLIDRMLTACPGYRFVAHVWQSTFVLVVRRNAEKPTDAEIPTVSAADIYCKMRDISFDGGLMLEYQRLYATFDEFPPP

Key:
[1] = biological target: UL34^(174-194) peptide, spin-labelled at the native cysteine C182 (HSV-1) (UniProt P10218); test: DEER spectroscopy
[2] = biological target: UL31^(1-C51) peptide, spin-labelled (HSV-1 UL31 MPR residues 1-50 with a C-terminal cysteine) (HSV-1) (UniProt P10215); test: DEER spectroscopy
[3] = biological target: UL34^(174-194) peptide, unlabelled (HSV-1) (UniProt P10218); test: cross-linking
[4] = biological target: UL34^(174-194) peptide, unlabelled (HSV-1) (UniProt P10218); test: cross-linking; remark: listed apart in the source
[5] = biological target: HSV-1 UL34 residues 1-220, the UL34 chain of NEC220 (HSV-1) (UniProt P10218); test: tandem affinity co-purification
[6] = biological target: UL31^(41-50) peptide (UL31 mini-MPR) (HSV-1); test: cross-linking
[7] = biological target: UL31^(41-50) peptide (UL31 mini-MPR) (HSV-1); test: cross-linking; remark: listed apart in the source

## UL34^(174-194) peptide, spin-labelled at the native cysteine C182 (from UniProt P10218 174-194)
[1]
  binding: no binding (tested: 50 μM)

## UL31^(1-C51) peptide, spin-labelled (HSV-1 UL31 MPR residues 1-50 with a C-terminal cysteine) (from UniProt P10215 1-50)
[2]
  binding: no binding (tested: 50 μM)

## UL31^(22-42) peptide (middle of the UL31 MPR) (from UniProt P10215 22-42)
[3]
  binding: no binding (condition: without SUVs)

## UL34^(174-194) peptide, unlabelled (from UniProt P10218 174-194)
[3]
  binding: no binding (tested: 50 μM)
[4]
  binding: no binding (tested: 50 μM)

## His6-SUMO-UL31 (HSV-1 strain F UL31, residues 1-306), the UL31 chain of NEC220 (from UniProt P10215 1-306)
[5]
  binding: binds

B1: UL31^(41-50) peptide (UL31 mini-MPR) (peptide)
peptide: RKSLPPHARK
modifications: N-terminal acetyl; C-terminal amide
[6]
  binding: no binding (tested: 50 μM)
[3]
  binding: no binding (condition: without SUVs)
[7]
  binding: no binding (tested: 50 μM)
